The values that follow come from patent US8623326B2 (University of Western Ontario, priority 2008, dated 2014).

This data set in a line: general procedure: Fmoc solid-phase peptide synthesis; Fmoc protected rink amide MBHA resin (loading 0.27 or 0.47 meq/g); HBTU/DIPEA. Conditions: whole synthesis.

Strings that start with PEPTIDE1 are HELM notation: dots part the residues, brackets hold end groups and non-standard residues.

“PEPTIDE1{G.S.[Dpr].F.L.[am]}|PEPTIDE2{[FHex6]}$PEPTIDE1,PEPTIDE2,3:R3-1:R2$$$V2.0” came in with an isolated mass of 3.4 mg. Where the note is “overall, scale of the general procedure 1 mmol”, this substance returned an isolated yield of 9%. Further, under “scale of the general procedure 1 mmol”, the “final purity (method not given)” value came to 97%.
